Earlier results, collected in US20070149466A1, “Methods and related compositions for treating or preventing obesity, insulin resistance disorders, and mitochondrial-associated disorders” (priority 2005, published 2007).
For at least one compound, name, drawing or mass did not settle the structure.

Test system: HDAC
Conditions: literature statements; in vitro or in vivo for SAHA, SBHA, CBHA; cited from earlier work

CCC(=O)CCCCC[C@@H]1NC(=O)[C@H]2CCCCN2C(=O)[C@H]([C@@H](C)CC)NC(=O)[C@H](Cc2cn(OC)c3ccccc23)NC1=O [Apicidin]
concentration at which HDAC is inhibited: nanomolar concentrations
